Binding data for 2 substances are collected here from paper PMC11996864, “A small-molecule inhibitor of BCL10-MALT1 interaction abrogates progression of diffuse large B cell lymphoma” (The Journal of Clinical Investigation, 2025).

In the assay the target is T1, Myc-tagged BCL10 (UniProt O95999).
T1 sequence: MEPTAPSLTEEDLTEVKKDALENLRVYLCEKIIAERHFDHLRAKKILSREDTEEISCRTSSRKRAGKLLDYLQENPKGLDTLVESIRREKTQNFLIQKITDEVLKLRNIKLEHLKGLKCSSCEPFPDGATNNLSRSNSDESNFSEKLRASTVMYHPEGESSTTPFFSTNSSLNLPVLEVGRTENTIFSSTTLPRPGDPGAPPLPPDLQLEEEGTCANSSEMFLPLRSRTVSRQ
In words: co-IP; HA-tagged MALT1 proteins or fragments with Myc-tagged BCL10 (or Myc-tagged RICK, MAVS), expressed in transiently transfected 293T cells.

No constants are given. Whether binding was seen depends on the method and setting. In cells and extracts the contact can be indirect. Binding can be weak; no strength is given. Tags and fused reporters may be left off the sequences shown.

In the case of “HA-tagged MALT1(DD+Ig1-2) (domain or fragment)”, the binding entry is “binds”.

As for “HA-tagged MALT1(Ig1-2+CTD) (domain or fragment)”, the binding result is reported as “binds”.
